# Assay results: PubChem BioAssay (EPA / NIEHS)
# Sequences of proteins named here, by UniProt entry; tags and fusion partners are left off.
# UniProt P04637, whole entry, looked up: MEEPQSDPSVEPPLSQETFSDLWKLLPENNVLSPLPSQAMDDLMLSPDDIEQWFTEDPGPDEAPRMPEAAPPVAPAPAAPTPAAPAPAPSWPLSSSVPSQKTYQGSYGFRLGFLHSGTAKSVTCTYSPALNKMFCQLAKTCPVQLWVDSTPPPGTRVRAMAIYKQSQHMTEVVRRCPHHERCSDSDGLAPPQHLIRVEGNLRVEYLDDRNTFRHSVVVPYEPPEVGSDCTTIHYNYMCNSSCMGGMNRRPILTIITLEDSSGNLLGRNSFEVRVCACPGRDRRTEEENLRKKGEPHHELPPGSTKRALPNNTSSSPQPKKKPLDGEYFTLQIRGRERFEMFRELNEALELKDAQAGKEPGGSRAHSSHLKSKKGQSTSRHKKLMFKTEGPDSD
# Values joined by “and” are separate entries in the source; they are usually repeats but may differ in a detail not shown here. Identical values can stand only once. The shares of active, inactive and inconclusive entries below differ from those in the screen. For some of these results: Potencies of inconclusive entries are doubtful fits and often do not repeat. Active and inactive are the calls of the source. The calls were made as follows: active = hit-call score of the fitted dose curve at least 0.9, where 1 is the maximum; inconclusive = response in the unintended direction; inactive = score below 0.9.
# What was measured:
# [1] = TOX21_p53_BLA_p3_viability: Viability Assessment in the Tox21 HCT-116 p53 Agonism Beta-lactamase Assay, Phase 3 (AID 2283593);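 also: cells exposed to compound for 16 h before reading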
# How it was run: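 Cellular ATP was quantified by CellTiter-Glo luminescence, read after 30 min at room temperature. Beforehand, HCT116 cells (4000/well) received compound 5 h post-seeding, 217-fold diluted from DMSO, then incubated 16 h at 37C.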
# [2] = TOX21_p53_BLA_p4_viability: Viability Assessment in the Tox21 HCT-116 p53 Agonism Beta-lactamase Assay, Phase 4 (AID 2283597);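 also: hits lower the luminescence signal meaning cytotoxicity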
# How it was run: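 HCT-116 p53-bla cells, 4000/well, dosed after 5 h attachment and incubated 16 h at 37 °C, 5% CO2. Viability from CellTiter-Glo ATP luminescence after 30 min at room temperature, taken after the beta-lactamase read; loss of signal indicates cytotoxicity.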
# [3] = TOX21_p53_BLA_p5_viability: Viability Assessment in the Tox21 HCT-116 p53 Agonism Beta-lactamase Assay, Phase 5 (AID 2283600)
# How it was run: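 HCT-116 p53 beta-lactamase reporter cells, 4000/well, were exposed to compound (pin transfer, 217-fold dilution) for 16 hours at 37C. Cellular ATP was read by CellTiter-Glo luminescence after 30 min at room temperature.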
# [4] = target: Cellular tumor antigen p53 (Homo sapiens) (UniProt P04637); assay: TOX21_p53_BLA_p5_ratio: Tox21 HCT-116 p53 Agonism Beta-lactamase Assay, Ratio, Phase 5 (AID 2283599)
# How it was run: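 Beta-lactamase reporter ratio (blue 460 nm over green 530 nm, 405 nm excitation) after 2 h CCF4-AM loading, in HCT-116 cells exposed 16 h at 37 C to compounds pinned at 217-fold dilution. Increases relative to DMSO baseline scored.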
# [5] = target: Cellular tumor antigen p53 (Homo sapiens) (UniProt P04637); assay: TOX21_p53_BLA_p4_ratio: Tox21 HCT-116 p53 Agonism Beta-lactamase Assay, Ratio, Phase 4 (AID 2283601)
# How it was run: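 Signal is the blue/green (460nm/530nm) ratio of cleaved versus uncleaved CCF4-AM substrate, read after 2 h substrate loading. Cells were HCT116 carrying the p53-responsive beta-lactamase reporter, dosed 16 h at 37C, 5% CO2; CellTiter-Glo measured in parallel.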
# [6] = target: Cellular tumor antigen p53 (Homo sapiens) (UniProt P04637); assay: TOX21_p53_BLA_p3_ratio: Tox21 HCT-116 p53 Agonism Beta-lactamase Assay, Ratio, Phase 3 (AID 2283596)
# How it was run: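 HCT116 p53-bla cells (4000/well) given compound in DMSO (217-fold dilution) after 5 h, incubated 16 h at 37C. CCF4-AM substrate 2 h at room temperature; 460/530 nm emission ratio, gain fitted against DMSO.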
# [7] = ACEA_ER_AUC_viability: ACEA Biosciences xCELLigence Real-Time Cell Analysis on Estrogen Receptor Agonism for Viability (AID 2283782);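 also: continuous compound exposure with impedance area under curve over 80 h; hit means loss of impedance signal meaning reduced cell growth or viability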
# How it was run: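 T-47D; phenol red-free RPMI1640 + 10% CS-FBS; 8 conc., 1:4 serial, max 100 uM final, ≤0.5% DMSO; n = 2; continuous exposure; impedance monitored to 80 h post-dose; AUC vs DMSO.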
smiles,measurement,setting,value
O=c1[nH]oc2c1CCNC2,outcome,[1],inactive
same,AC50,[2],inconclusive: 23 µM
same,AC50,[3],inconclusive: 23 µM
COP(=S)(OC)Oc1ccc([N+](=O)[O-])cc1Cl,AC50,[1],inconclusive: 46.1 µM
same,AC50,[4],inconclusive: 86.4 µM
NC1(c2ccccc2)CCCCC1,outcome,[1],inactive
same,AC50,[2],inconclusive: 45.8 µM
same,outcome,[4],inactive
C[C@H]1[C@@H]2Cc3ccc(O)cc3[C@@]1(C)CCN2C,AC50,[1],inconclusive: 116 µM
same,AC50,[2],inconclusive: 116 µM
same,outcome,[5],inactive
C=CCSSCC=C,AC50,[1],inconclusive: 46.1 µM
same,AC50,[6],active: 57.5 µM
same,AC50,[4],inconclusive: 46.1 µM
same,AC50,[7],inconclusive: 50 µM
C=CC(C)(CCC=C(C)C)OC(=O)c1ccccc1N (configuration not stated),AC50,[1],inconclusive: 46.3 µM
same,AC50,[2],inconclusive: 46.3 µM
CN1[C@@H]2CC[C@H]1CC(OC(=O)c1cc(Cl)cc(Cl)c1)C2 (some centres not stated),AC50,[6],inconclusive: 23 µM
